No constants are given. Whether binding was seen depends on the method and setting. In cells and extracts the contact can be indirect. These calls come from enrichment with a bait or labelling near it, and not all partners need be listed. Where a sequence is shown, tags or fusion partners need not be part of it.
B1: Fibronectin type-III domain-containing protein 3A (protein, UniProt Q9Y2H6-1 1-1198)
chain: MAEHPPLLDTTQILSSDISLLSAPIVSADGTQQVILVQVNPGEAFTIRREDGQFQCITGPAQVPMMSPNGSVPPIYVPPGYAPQVIEDNGVRRVVVVPQAPEFHPGSHTVLHRSPHPPLPGFIPVPTMMPPPPRHMYSPVTGAGDMTTQYMPQYQSSQVYGDVDAHSTHGRSNFRDERSSKTYERLQKKLKDRQGTQKDKMSSPPSSPQKCPSPINEHNGLIKGQIAGGINTGSAKIKSGKGKGGTQVDTEIEEKDEETKAFEALLSNIVKPVASDIQARTVVLTWSPPSSLINGETDESSVPELYGYEVLISSTGKDGKYKSVYVGEETNITLNDLKPAMDYHAKVQAEYNSIKGTPSEAEIFTTLSCEPDIPNPPRIANRTKNSLTLQWKAPSDNGSKIQNFVLEWDEGKGNGEFCQCYMGSQKQFKITKLSPAMGCKFRLSARNDYGTSGFSEEVLYYTSGCAPSMPASPVLTKAGITWLSLQWSKPSGTPSDEGISYILEMEEETSGYGFKPKYDGEDLAYTVKNLRRSTKYKFKVIAYNSEGKSNPSEVVEFTTCPDKPGIPVKPSVKGKIHSHSFKITWDPPKDNGGATINKYVVEMAEGSNGNKWEMIYSGATREHLCDRLNPGCFYRLRVYCISDGGQSAVSESLLVQTPAVPPGPCLPPRLQGRPKAKEIQLRWGPPLVDGGSPISCYSVEMSPIEKDEPREVYQGSEVECTVSSLLPGKTYSFRLRAANKMGFGPFSEKCDITTAPGPPDQCKPPQVTCRSATCAQVNWEVPLSNGTDVTEYRLEWGGVEGSMQICYCGPGLSYEIKGLSPATTYYCRVQALSVVGAGPFSEVVACVTPPSVPGIVTCLQEISDDEIENPHYSPSTCLAISWEKPCDHGSEILAYSIDFGDKQSLTVGKVTSYIINNLQPDTTYRIRIQALNSLGAGPFSHMIKLKTKPLPPDPPRLECVAFSHQNLKLKWGEGTPKTLSTDSIQYHLQMEDKNGRFVSLYRGPCHTYKVQRLNESTSYKFCIQACNEAGEGPLSQEYIFTTPKSVPAALKAPKIEKVNDHICEITWECLQPMKGDPVIYSLQVMLGKDSEFKQIYKGPDSSFRYSSLQLNCEYRFRVCAIRQCQDSLGHQDLVGPYSTTVLFISQRTEPPASTNRDTVESTRTRRALSDEQCAAVILVLFAFFSILIAFIIQYFVIK
B2: GRB2-associated-binding protein 1 (protein, UniProt Q13480-2 1-724)
chain: MSGGEVVCSGWLRKSPPEKKLKRYAWKRRWFVLRSGRLTGDPDVLEYYKNDHAKKPIRIIDLNLCQQVDAGLTFNKKEFENSYIFDINTIDRIFYLVADSEEEMNKWVRCICDICGFNPTEEDPVKPPGSSLQAPADLPLAINTAPPSTQADSSSATLPPPYQLINVPPHLETLGIQEDPQDYLLLINCQSKKPEPTRTHADSAKSTSSETDCNDNVPSHKNPASSQSKHGMNGFFQQQMIYDSPPSRAPSASVDSSLYNLPRSYSHDVLPKVSPSSTEADGELYVFNTPSGTSSVETQMRHVSISYDIPPTPGNTYQIPRTFPEGTLGQTSKLDTIPDIPPPRPPKPHPAHDRSPVETCSIPRTASDTDSSYCIPTAGMSPSRSNTISTVDLNKLRKDASSQDCYDIPRAFPSDRSSSLEGFHNHFKVKNVLTVGSVSSEELDENYVPMNPNSPPRQHSSSFTEPIQEANYVPMTPGTFDFSSFGMQVPPPAHMGFRSSPKTPPRRPVPVADCEPPPVDRNLKPDRKGQSPKILRLKPHGLERTDSQTIGDFATRRKVKPAPLEIKPLPEWEELQAPVRSPITRSFARDSSRFPMSPRPDSVHSTTSSSDSHDSEENYVPMNPNLSSEDPNLFGSNSLDGGSSPMIKPKGDKQVEYLDLDLDSGKSTPPRKQKSSGSGSSVADERVDYVVVDQQKTLALKSTREAWTDGRQSTESETPAKSVK
B3: Extended synaptotagmin-1 (protein, UniProt Q9BSJ8-2 1-1114)
chain: MERSPGEGPSPSPMDQPSAPSDPTDQPPAAHAKPDPGSGGQPAGPGAAGEALAVLTSFGRRLLVLIPVYLAGAVGLSVGFVLFGLALYLGWRRVRDEKERSLRAARQLLDDEEQLTAKTLYMSHRELPAWVSFPDVEKAEWLNKIVAQVWPFLGQYMEKLLAETVAPAVRGSNPHLQTFTFTRVELGEKPLRIIGVKVHPGQRKEQILLDLNISYVGDVQIDVEVKKYFCKAGVKGMQLHGVLRVILEPLIGDLPFVGAVSMFFIRRPTLDINWTGMTNLLDIPGLSSLSDTMIMDSIAAFLVLPNRLLVPLVPDLQDVAQLRSPLPRGIIRIHLLAARGLSSKDKYVKGLIEGKSDPYALVRLGTQTFCSRVIDEELNPQWGETYEVMVHEVPGQEIEVEVFDKDPDKDDFLGRMKLDVGKVLQASVLDDWFPLQGGQGQVHLRLEWLSLLSDAEKLEQVLQWNWGVSSRPDPPSAAILVVYLDRAQDLPMVTSELYPPQLKKGNKEPNPMVQLSIQDVTQESKAVYSTNCPVWEEAFRFFLQDPQSQELDVQVKDDSRALTLGALTLPLARLLTAPELILDQWFQLSSSGPNSRLYMKLVMRILYLDSSEICFPTVPGCPGAWDVDSENPQRGSSVDAPPRPCHTTPDSQFGTEHVLRIHVLEAQDLIAKDRFLGGLVKGKSDPYVKLKLAGRSFRSHVVREDLNPRWNEVFEVIVTSVPGQELEVEVFDKDLDKDDFLGRCKVRLTTVLNSGFLDEWLTLEDVPSGRLHLRLERLTPRPTAAELEEVLQVNSLIQTQKSAELAAALLSIYMERAEDLPLRKGTKHLSPYATLTVGDSSHKTKTISQTSAPVWDESASFLIRKPHTESLELQVRGEGTGVLGSLSLPLSELLVADQLCLDRWFTLSSGQGQVLLRAQLGILVSQHSGVEAHSHSYSHSSSSLSEEPELSGGPPHITSSAPELRQRLTHVDSPLEAPAGPLGQVKLTLWYYSEERKLVSIVHGCRSLRQNGRDPPDPYVSLLLLPDKNRGTKRRTSQKKRTLSPEFNERFEWELPLDEAQRRKLDVSVKSNSSFMSRERELLGKVQLDLAETDLSQGVARWYDLMDNKDKGSS
B4: GTPase-activating protein and VPS9 domain-containing protein 1 (protein, UniProt Q14C86-1 1-1478)
chain: MVKLDIHTLAHHLKQERLYVNSEKQLIQRLNADVLKTAEKLYRTAWIAKQQRINLDRLIITSAEASPAECCQHAKILEDTQFVDGYKQLGFQETAYGEFLSRLRENPRLIASSLVAGEKLNQENTQSVIYTVFTSLYGNCIMQEDESYLLQVLRYLIEFELKESDNPRRLLRRGTCAFSILFKLFSEGLFSAKLFLTATLHEPIMQLLVEDEDHLETDPNKLIERFSPSQQEKLFGEKGSDRFRQKVQEMVESNEAKLVALVNKFIGYLKQNTYCFPHSLRWIVSQMYKTLSCVDRLEVGEVRAMCTDLLLACFICPAVVNPEQYGIISDAPINEVARFNLMQVGRLLQQLAMTGSEEGDPRTKSSLGKFDKSCVAAFLDVVIGGRAVETPPLSSVNLLEGLSRTVVYITYSQLITLVNFMKSVMSGDQLREDRMALDNLLANLPPAKPGKSSSLEMTPYNTPQLSPATTPANKKNRLPIATRSRSRTNMLMDLHMDHEGSSQETIQEVQPEEVLVISLGTGPQLTPGMMSENEVLNMQLSDGGQGDVPVDENKLHGKPDKTLRFSLCSDNLEGISEGPSNRSNSVSSLDLEGESVSELGAGPSGSNGVEALQLLEHEQATTQDNLDDKLRKFEIRDMMGLTDDRDISETVSETWSTDVLGSDFDPNIDEDRLQEIAGAAAENMLGSLLCLPGSGSVLLDPCTGSTISETTSEAWSVEVLPSDSEAPDLKQEERLQELESCSGLGSTSDDTDVREVSSRPSTPGLSVVSGISATSEDIPNKIEDLRSECSSDFGGKDSVTSPDMDEITHGAHQLTSPPSQSESLLAMFDPLSSHEGASAVVRPKVHYARPSHPPPDPPILEGAVGGNEARLPNFGSHVLTPAEMEAFKQRHSYPERLVRSRSSDIVSSVRRPMSDPSWNRRPGNEERELPPAAAIGATSLVAAPHSSSSSPSKDSSRGETEERKDSDDEKSDRNRPWWRKRFVSAMPKAPIPFRKKEKQEKDKDDLGPDRFSTLTDDPSPRLSAQAQVAEDILDKYRNAIKRTSPSDGAMANYESTGDNHDRDLSSKLLYHSDKEVMGDGESAHDSPRDEALQNISADDLPDSASQAAHPQDSAFSYRDAKKKLRLALCSADSVAFPVLTHSTRNGLPDHTDPEDNEIVCFLKVQIAEAINLQDKNLMAQLQETMRCVCRFDNRTCRKLLASIAEDYRKRAPYIAYLTRCRQGLQTTQAHLERLLQRVLRDKEVANRYFTTVCVRLLLESKEKKIREFIQDFQKLTAADDKTAQVEDFLQFLYGAMAQDVIWQNASEEQLQDAQLAIERSVMNRIFKLAFYPNQDGDILRDQVLHEHIQRLSKVVTANHRALQIPEVYLREAPWPSAQSEIRTISAYKTPRDKVQCILRMCSTIMNLLSLANEDSVPGADDFVPVLVFVLIKANPPCLLSTVQYISSFYASCLSGEESYWWMQFTAAVEFIKTIDDRK

Amino acid sequences for entries named in this document (tags omitted).
UniProt Q8IWT6: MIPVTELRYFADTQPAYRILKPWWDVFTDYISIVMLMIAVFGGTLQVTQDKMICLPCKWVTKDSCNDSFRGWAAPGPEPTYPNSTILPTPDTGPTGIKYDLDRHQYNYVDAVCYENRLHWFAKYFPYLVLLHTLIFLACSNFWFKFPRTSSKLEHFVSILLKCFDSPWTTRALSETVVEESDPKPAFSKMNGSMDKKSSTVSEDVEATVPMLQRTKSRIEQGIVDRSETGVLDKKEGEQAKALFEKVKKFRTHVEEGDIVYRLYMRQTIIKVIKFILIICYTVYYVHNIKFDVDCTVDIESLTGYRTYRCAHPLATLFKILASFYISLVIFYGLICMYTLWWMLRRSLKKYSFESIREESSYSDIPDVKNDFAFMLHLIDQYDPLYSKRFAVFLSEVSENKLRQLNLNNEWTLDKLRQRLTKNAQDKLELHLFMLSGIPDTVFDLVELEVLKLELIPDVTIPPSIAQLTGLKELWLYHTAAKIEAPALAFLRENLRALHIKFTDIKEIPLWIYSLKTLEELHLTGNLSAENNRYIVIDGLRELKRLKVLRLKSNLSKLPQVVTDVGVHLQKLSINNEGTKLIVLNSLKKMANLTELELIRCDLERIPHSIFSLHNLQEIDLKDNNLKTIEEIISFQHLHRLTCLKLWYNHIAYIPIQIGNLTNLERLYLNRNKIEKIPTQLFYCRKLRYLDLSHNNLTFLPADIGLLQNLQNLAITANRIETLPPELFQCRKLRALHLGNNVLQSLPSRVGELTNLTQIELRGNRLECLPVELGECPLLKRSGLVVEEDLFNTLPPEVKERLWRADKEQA

molecular target: LRRC8A-BirA*-HA fusion protein (human) (UniProt Q8IWT6); test: proximity labelling; BioID: HEK293 cells stably expressing LRRC8A-BirA*-HA (two clones), 50 uM biotin 24 h, RIPA lysis, streptavidin bead pull-down of biotinylated proteins, TMT labelling and LC-MS/MS; hits: FDR <= 0.05 and fold change >= 2 against the no-biotin control

binding, binds:
B1, B2, B3, B4

From paper PMC11193767
